Measurements as given in patent publication US12419871B2, “Biomolecules involved in Alzheimer's disease” (ELECTROPHORETICS LIMITED, priority 2015, dated 2025).

B1: O75494 (protein, UniProt O75494 1-262, looked up)
chain: MSRYLRPPNTSLFVRNVADDTRSEDLRREFGRYGPIVDVYVPLDFYTRRPRGFAYVQFEDVRDAEDALHNLDRKWICGRQIEIQFAQGDRKTPNQMKAKEGRNVYSSSRYDDYDRYRRSRSRSYERRRSRSRSFDYNYRRSYSPRNSRPTGRPRRSRSHSDNDRFKHRNRSFSRSKSNSRSRSKSQPKKEMKAKSRSRSASHTKTRGTSKTDSKTHYKSGSRYEKESRKKEPPRSKSQSRSQSRSRSKSRSRSWTSPKSSGH
modifications: full-length
B2: Q9P227 (protein, UniProt Q9P227 1-1491, looked up)
chain: MNGVAFCLVGIPPRPEPRPPQLPLGPRDGCSPRRPFPWQGPRTLLLYKSPQDGFGFTLRHFIVYPPESAVHCSLKEEENGGRGGGPSPRYRLEPMDTIFVKNVKEDGPAHRAGLRTGDRLVKVNGESVIGKTYSQVIALIQNSDDTLELSIMPKDEDILQLAYSQDAYLKGNEPYSGEARSIPEPPPICYPRKTYAPPARASTRATMVPEPTSALPSDPRSPAAWSDPGLRVPPAARAHLDNSSLGMSQPRPSPGAFPHLSSEPRTPRAFPEPGSRVPPSRLECQQALSHWLSNQVPRRAGERRCPAMAPRARSASQDRLEEVAAPRPWPCSTSQDALSQLGQEGWHRARSDDYLSRATRSAEALGPGALVSPRFERCGWASQRSSARTPACPTRDLPGPQAPPPSGLQGLDDLGYIGYRSYSPSFQRRTGLLHALSFRDSPFGGLPTFNLAQSPASFPPEASEPPRVVRPEPSTRALEPPAEDRGDEVVLRQKPPTGRKVQLTPARQMNLGFGDESPEPEASGRGERLGRKVAPLATTEDSLASIPFIDEPTSPSIDLQAKHVPASAVVSSAMNSAPVLGTSPSSPTFTFTLGRHYSQDCSSIKAGRRSSYLLAITTERSKSCDDGLNTFRDEGRVLRRLPNRIPSLRMLRSFFTDGSLDSWGTSEDADAPSKRHSTSDLSDATFSDIRREGWLYYKQILTKKGKKAGSGLRQWKRVYAALRARSLSLSKERREPGPAAAGAAAAGAGEDEAAPVCIGSCLVDISYSETKRRHVFRLTTADFCEYLFQAEDRDDMLGWIRAIRENSRAEGEDPGCANQALISKKLNDYRKVSHSSGPKADSSPKGSRGLGGLKSEFLKQSAARGLRTQDLPAGSKDDSAAAPKTPWGINIIKKNKKAAPRAFGVRLEECQPATENQRVPLIVAACCRIVEARGLESTGIYRVPGNNAVVSSLQEQLNRGPGDINLQDERWQDLNVISSLLKSFFRKLPEPLFTDDKYNDFIEANRIEDARERMRTLRKLIRDLPGHYYETLKFLVGHLKTIADHSEKNKMEPRNLALVFGPTLVRTSEDNMTDMVTHMPDRYKIVETLIQHSDWFFSDEEDKGERTPVGDKEPQAVPNIEYLLPNIGRTVPPGDPGSDSTTCSSAKSKGSWAPKKEPYAREMLAISFISAVNRKRKKRREARGLGSSTDDDSEQEAHKPGAGATAPGTQERPQGPLPGAVAPEAPGRLSPPAAPEERPAADTRSIVSGYSTLSTMDRSVCSGASGRRAGAGDEADDERSELSHVETDTEGAAGAGPGGRLTRRPSFSSHHLMPCDTLARRRLARGRPDGEGAGRGGPRAPEPPGSASSSSQESLRPPAAALASRPSRMEALRLRLRGTADDMLAVRLRRPLSPETRRRRSSWRRHTVVVQSPLTDLNFNEWKELGGGGPPEPAGARAHSDNKDSGLSSLESTKARAPSSAASQPPAPGDTGSLQSQPPRRSAASRLHQCL
modifications: full-length
B3: O75326 (protein, UniProt O75326 1-666, looked up)
chain: MTPPPPGRAAPSAPRARVPGPPARLGLPLRLRLLLLLWAAAASAQGHLRSGPRIFAVWKGHVGQDRVDFGQTEPHTVLFHEPGSSSVWVGGRGKVYLFDFPEGKNASVRTVNIGSTKGSCLDKRDCENYITLLERRSEGLLACGTNARHPSCWNLVNGTVVPLGEMRGYAPFSPDENSLVLFEGDEVYSTIRKQEYNGKIPRFRRIRGESELYTSDTVMQNPQFIKATIVHQDQAYDDKIYYFFREDNPDKNPEAPLNVSRVAQLCRGDQGGESSLSVSKWNTFLKAMLVCSDAATNKNFNRLQDVFLLPDPSGQWRDTRVYGVFSNPWNYSAVCVYSLGDIDKVFRTSSLKGYHSSLPNPRPGKCLPDQQPIPTETFQVADRHPEVAQRVEPMGPLKTPLFHSKYHYQKVAVHRMQASHGETFHVLYLTTDRGTIHKVVEPGEQEHSFAFNIMEIQPFRRAAAIQTMSLDAERRKLYVSSQWEVSQVPLDLCEVYGGGCHGCLMSRDPYCGWDQGRCISIYSSERSVLQSINPAEPHKECPNPKPDKAPLQKVSLAPNSRYYLSCPMESRHATYSWRHKENVEQSCEPGHQSPNCILFIENLTAQQYGHYFCEAQEGSYFREAQHWQLLPEDGIMAEHLLGHACALAASLWLGVLPTLTLGLLVH
modifications: full-length
B4: Q9Y3A5 (protein, UniProt Q9Y3A5 1-250, looked up)
chain: MSIFTPTNQIRLTNVAVVRMKRAGKRFEIACYKNKVVGWRSGVEKDLDEVLQTHSVFVNVSKGQVAKKEDLISAFGTDDQTEICKQILTKGEVQVSDKERHTQLEQMFRDIATIVADKCVNPETKRPYTVILIERAMKDIHYSVKTNKSTKQQALEVIKQLKEKMKIERAHMRLRFILPVNEGKKLKEKLKPLIKVIESEDYGQQLEIVCLIDPGCFREIDELIKKETKGKGSLEVLNLKDVEEGDEKFE
modifications: full-length
B5: Q8TC12 (protein, UniProt Q8TC12 1-318, looked up)
chain: MVELMFPLLLLLLPFLLYMAAPQIRKMLSSGVCTSTVQLPGKVVVVTGANTGIGKETAKELAQRGARVYLACRDVEKGELVAKEIQTTTGNQQVLVRKLDLSDTKSIRAFAKGFLAEEKHLHVLINNAGVMMCPYSKTADGFEMHIGVNHLGHFLLTHLLLEKLKESAPSRIVNVSSLAHHLGRIHFHNLQGEKFYNAGLAYCHSKLANILFTQELARRLKGSGVTTYSVHPGTVQSELVRHSSFMRWMWWLFSFFIKTPQQGAQTSLHCALTEGLEILSGNHFSDCHVAWVSAQARNETIARRLWDVSCDLLGLPID
modifications: full-length
B6: O15034 (protein, UniProt O15034 1-1052, looked up)
chain: MREAAERRQQLQLEHDQALAVLSAKQQEIDLLQKSKVRELEEKCRTQSEQFNLLSRDLEKFRQHAGKIDLLGGSAVAPLDISTAPSKPFPQFMNGLATSLGKGQESAIGGSSAIGEYIRPLPQPGDRPEPLSAKPTFLSRSGSARCRSESDMENERNSNTSKQRYSGKVHLCVARYSYNPFDGPNENPEAELPLTAGKYLYVYGDMDEDGFYEGELLDGQRGLVPSNFVDFVQDNESRLASTLGNEQDQNFINHSGIGLEGEHILDLHSPTHIDAGITDNSAGTLDVNIDDIGEDIVPYPRKITLIKQLAKSVIVGWEPPAVPPGWGTVSSYNVLVDKETRMNLTLGSRTKALIEKLNMAACTYRISVQCVTSRGSSDELQCTLLVGKDVVVAPSHLRVDNITQISAQLSWLPTNSNYSHVIFLNEEEFDIVKAARYKYQFFNLRPNMAYKVKVLAKPHQMPWQLPLEQREKKEAFVEFSTLPAGPPAPPQDVTVQAGVTPATIRVSWRPPVLTPTGLSNGANVTGYGVYAKGQRVAEVIFPTADSTAVELVRLRSLEAKGVTVRTLSAQGESVDSAVAAVPPELLVPPTPHPRPAPQSKPLASSGVPETKDEHLGPHARMDEAWEQSRAPGPVHGHMLEPPVGPGRRSPSPSRILPQPQGTPVSTTVAKAMAREAAQRVAESSRLEKRSVFLERSSAGQYAASDEEDAYDSPDFKRRGASVDDFLKGSELGKQPHCCHGDEYHTESSRGSDLSDIMEEDEEELYSEMQLEDGGRRRPSGTSHNALKILGNPASAGRVDHMGRRFPRGSAGPQRSRPVTVPSIDDYGRDRLSPDFYEESETDPGAEELPARIFVALFDYDPLTMSPNPDAAEEELPFKEGQIIKVYGDKDADGFYRGETCARLGLIPCNMVSEIQADDEEMMDQLLRQGFLPLNTPVEKIERSRRSGRRHSVSTRRMVALYDYDPRESSPNVDVEAELTFCTGDIITVFGEIDEDGFYYGELNGQKGLVPSNFLEEVPDDVEVYLSDAPSHYSQDTPMRSKAKRKKSVHFTP
modifications: full-length
B7: P34897 (protein, UniProt P34897 1-504, looked up)
chain: MLYFSLFWAARPLQRCGQLVRMAIRAQHSNAAQTQTGEANRGWTGQESLSDSDPEMWELLQREKDRQCRGLELIASENFCSRAALEALGSCLNNKYSEGYPGKRYYGGAEVVDEIELLCQRRALEAFDLDPAQWGVNVQPYSGSPANLAVYTALLQPHDRIMGLDLPDGGHLTHGYMSDVKRISATSIFFESMPYKLNPKTGLIDYNQLALTARLFRPRLIIAGTSAYARLIDYARMREVCDEVKAHLLADMAHISGLVAAKVIPSPFKHADIVTTTTHKTLRGARSGLIFYRKGVKAVDPKTGREIPYTFEDRINFAVFPSLQGGPHNHAIAAVAVALKQACTPMFREYSLQVLKNARAMADALLERGYSLVSGGTDNHLVLVDLRPKGLDGARAERVLELVSITANKNTCPGDRSAITPGGLRLGAPALTSRQFREDDFRRVVDFIDEGVNIGLEVKSKTAKLQDFKSFLLKDSETSQRLANLRQRVEQFARAFPMPGFDEH
modifications: full-length
B8: Q6ZV89 (protein, UniProt Q6ZV89 1-423, looked up)
chain: MQKAGAGGRRASDCGLAPHRPRCITKFAQYVGSFPVDDLDTQESVWLVQQQLWALKDCPRRRAVILKFSLQGLKIYSGEGEVLLMAHALRRILYSTWCPADCQFAFMARNPRSPASKLFCHLFVGSQPGEVQILHLLLCRSFQLAYLLQHPEERAQPEPCPGPTGEVPLKPLSSSGGLVREPFGRDQLSQNVHALVSFRRLPAEGLVGSGKELPESEGRARHARLGNPYCSPTLVRKKAIRSKVIRSGAYRGCTYETQLQLSAREAFPAAWEAWPRGPGGHSCLVESEGSLTENIWAFAGISRPCALALLRRDVLGAFLLWPELGASGQWCLSVRTQCGVVPHQVFRNHLGRYCLEHLPAEFPSLEALVENHAVTERSLFCPLDMGRLNPTYEEQDCGPPGRPPRTLRPLSHAKSEAELQGLG
modifications: full-length
B9: P05060 (protein, UniProt P05060 1-677, looked up)
chain: MQPTLLLSLLGAVGLAAVNSMPVDNRNHNEGMVTRCIIEVLSNALSKSSAPPITPECRQVLKTSRKDVKDKETTENENTKFEVRLLRDPADASEAHESSSRGEAGAPGEEDIQGPTKADTEKWAEGGGHSRERADEPQWSLYPSDSQVSEEVKTRHSEKSQREDEEEEEGENYQKGERGEDSSEEKHLEEPGETQNAFLNERKQASAIKKEELVARSETHAAGHSQEKTHSREKSSQESGEETGSQENHPQESKGQPRSQEESEEGEEDATSEVDKRRTRPRHHHGRSRPDRSSQGGSLPSEEKGHPQEESEESNVSMASLGEKRDHHSTHYRASEEEPEYGEEIKGYPGVQAPEDLEWERYRGRGSEEYRAPRPQSEESWDEEDKRNYPSLELDKMAHGYGEESEEERGLEPGKGRHHRGRGGEPRAYFMSDTREEKRFLGEGHHRVQENQMDKARRHPQGAWKELDRNYLNYGEEGAPGKWQQQGDLQDTKENREEARFQDKQYSSHHTAEKRKRLGELFNPYYDPLQWKSSHFERRDNMNDNFLEGEEENELTLNEKNFFPEYNYDWWEKKPFSEDVNWGYEKRNLARVPKLDLKRQYDRVAQLDQLLHYRKKSAEFPDFYDSEEPVSTHQEAENEKDRADQTVLTEDEKKELENLAAMDLELQKIAEKFSQRG
modifications: full-length

Test: TMTcalibrator quantification of regulated proteins in AD CSF versus control
Set-up: species or system human
Details: CSF of AD patient versus control; non-modified peptides of each protein summed for three control and three AD cases

Molecule	Log2 AD/Control
B1	0.79
B2	0.88
B3	0.85
B4	0.86
B5	−0.73
B6	2.48
B7	−1.81
B8	−0.80
B9	0.80
